Patent US20060057665A1, “Galectin-14 therapeutic molecule and uses thereof” (The University of Melbourne, priority 2001, published 2006)
These are yes or no findings as the source states them, for the method shown. Some binding calls cover weakened binding; strength is not graded here. Where a sequence is shown, tags or fusion partners need not be part of it.

Protein sequences, listed by entry. Tags and fused reporters are not part of them. Lines headed by an entry give the natural chain unless they say otherwise; changes in a name come on top.
UniProt P19137: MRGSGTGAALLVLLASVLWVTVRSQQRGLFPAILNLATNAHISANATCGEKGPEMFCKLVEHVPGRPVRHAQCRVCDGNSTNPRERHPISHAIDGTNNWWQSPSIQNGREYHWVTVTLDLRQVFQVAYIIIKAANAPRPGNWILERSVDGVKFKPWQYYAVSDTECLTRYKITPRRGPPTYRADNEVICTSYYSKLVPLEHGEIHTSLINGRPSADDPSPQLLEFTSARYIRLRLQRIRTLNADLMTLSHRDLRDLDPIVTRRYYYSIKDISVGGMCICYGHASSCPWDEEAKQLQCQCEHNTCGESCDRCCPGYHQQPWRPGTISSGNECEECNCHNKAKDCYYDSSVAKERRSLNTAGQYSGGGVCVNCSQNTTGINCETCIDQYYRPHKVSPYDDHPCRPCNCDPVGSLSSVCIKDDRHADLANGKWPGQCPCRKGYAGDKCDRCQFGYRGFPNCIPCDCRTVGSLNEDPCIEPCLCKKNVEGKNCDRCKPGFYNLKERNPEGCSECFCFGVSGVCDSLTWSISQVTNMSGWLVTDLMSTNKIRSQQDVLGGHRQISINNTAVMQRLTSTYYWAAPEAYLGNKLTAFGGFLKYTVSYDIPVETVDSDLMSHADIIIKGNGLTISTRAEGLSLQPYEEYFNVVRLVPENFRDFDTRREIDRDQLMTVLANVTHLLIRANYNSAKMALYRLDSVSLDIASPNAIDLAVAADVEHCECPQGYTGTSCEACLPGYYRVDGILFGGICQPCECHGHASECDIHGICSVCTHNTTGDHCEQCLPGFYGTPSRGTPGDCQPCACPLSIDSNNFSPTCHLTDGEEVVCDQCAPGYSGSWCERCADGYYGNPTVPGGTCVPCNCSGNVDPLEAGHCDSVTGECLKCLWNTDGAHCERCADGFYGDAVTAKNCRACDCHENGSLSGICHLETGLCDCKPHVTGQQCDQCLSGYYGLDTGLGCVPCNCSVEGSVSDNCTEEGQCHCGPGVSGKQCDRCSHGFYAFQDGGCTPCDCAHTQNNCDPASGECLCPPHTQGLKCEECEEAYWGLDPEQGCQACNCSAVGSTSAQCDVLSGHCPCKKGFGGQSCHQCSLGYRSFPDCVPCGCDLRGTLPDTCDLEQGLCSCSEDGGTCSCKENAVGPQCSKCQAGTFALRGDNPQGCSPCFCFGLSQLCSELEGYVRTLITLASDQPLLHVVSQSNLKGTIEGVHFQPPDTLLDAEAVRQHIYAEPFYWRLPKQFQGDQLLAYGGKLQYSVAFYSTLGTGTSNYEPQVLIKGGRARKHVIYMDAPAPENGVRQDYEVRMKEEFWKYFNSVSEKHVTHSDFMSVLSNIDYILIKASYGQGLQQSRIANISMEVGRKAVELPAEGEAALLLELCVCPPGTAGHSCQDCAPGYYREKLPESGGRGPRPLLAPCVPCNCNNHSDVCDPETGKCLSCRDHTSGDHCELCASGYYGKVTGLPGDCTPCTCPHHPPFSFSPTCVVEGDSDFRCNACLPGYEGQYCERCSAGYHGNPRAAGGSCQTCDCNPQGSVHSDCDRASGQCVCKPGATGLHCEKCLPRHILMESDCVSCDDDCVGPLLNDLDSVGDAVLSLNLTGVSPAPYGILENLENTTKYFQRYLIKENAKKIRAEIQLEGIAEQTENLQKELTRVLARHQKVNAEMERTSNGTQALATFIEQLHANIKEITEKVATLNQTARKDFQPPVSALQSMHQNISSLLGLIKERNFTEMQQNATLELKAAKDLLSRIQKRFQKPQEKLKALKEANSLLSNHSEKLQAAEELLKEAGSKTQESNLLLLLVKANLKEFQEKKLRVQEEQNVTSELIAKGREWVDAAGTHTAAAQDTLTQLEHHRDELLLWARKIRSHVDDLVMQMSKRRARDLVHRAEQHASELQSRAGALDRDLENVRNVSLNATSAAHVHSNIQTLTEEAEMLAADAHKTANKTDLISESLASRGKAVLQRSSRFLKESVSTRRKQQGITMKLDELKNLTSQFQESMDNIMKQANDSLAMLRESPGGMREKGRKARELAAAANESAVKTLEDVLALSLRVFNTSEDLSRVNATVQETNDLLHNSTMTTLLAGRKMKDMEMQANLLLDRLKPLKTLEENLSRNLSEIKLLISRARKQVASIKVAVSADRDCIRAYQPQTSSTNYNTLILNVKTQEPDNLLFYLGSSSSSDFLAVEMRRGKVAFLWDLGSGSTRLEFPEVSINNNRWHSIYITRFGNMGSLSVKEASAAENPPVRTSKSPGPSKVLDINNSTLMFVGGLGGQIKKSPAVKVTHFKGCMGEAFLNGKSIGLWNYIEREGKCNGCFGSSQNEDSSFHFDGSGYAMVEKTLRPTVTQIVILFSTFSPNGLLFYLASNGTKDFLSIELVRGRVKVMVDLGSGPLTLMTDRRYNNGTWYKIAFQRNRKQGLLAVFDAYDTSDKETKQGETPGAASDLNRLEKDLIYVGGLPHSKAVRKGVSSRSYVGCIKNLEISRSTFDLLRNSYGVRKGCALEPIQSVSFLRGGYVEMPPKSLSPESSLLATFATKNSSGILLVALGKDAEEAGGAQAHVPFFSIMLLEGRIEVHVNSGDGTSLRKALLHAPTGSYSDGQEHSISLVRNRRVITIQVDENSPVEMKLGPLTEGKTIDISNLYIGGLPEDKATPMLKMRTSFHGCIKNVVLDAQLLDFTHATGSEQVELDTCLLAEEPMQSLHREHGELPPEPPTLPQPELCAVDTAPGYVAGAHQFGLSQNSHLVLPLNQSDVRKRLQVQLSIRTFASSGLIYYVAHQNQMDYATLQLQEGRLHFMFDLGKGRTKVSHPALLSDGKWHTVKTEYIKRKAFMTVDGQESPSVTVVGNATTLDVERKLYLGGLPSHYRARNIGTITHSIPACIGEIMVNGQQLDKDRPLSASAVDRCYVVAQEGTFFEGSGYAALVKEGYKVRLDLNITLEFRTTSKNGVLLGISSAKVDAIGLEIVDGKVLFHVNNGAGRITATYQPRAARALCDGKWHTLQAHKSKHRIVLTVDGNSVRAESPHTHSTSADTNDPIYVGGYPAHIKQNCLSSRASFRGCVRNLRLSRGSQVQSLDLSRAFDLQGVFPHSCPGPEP
UniProt P02469: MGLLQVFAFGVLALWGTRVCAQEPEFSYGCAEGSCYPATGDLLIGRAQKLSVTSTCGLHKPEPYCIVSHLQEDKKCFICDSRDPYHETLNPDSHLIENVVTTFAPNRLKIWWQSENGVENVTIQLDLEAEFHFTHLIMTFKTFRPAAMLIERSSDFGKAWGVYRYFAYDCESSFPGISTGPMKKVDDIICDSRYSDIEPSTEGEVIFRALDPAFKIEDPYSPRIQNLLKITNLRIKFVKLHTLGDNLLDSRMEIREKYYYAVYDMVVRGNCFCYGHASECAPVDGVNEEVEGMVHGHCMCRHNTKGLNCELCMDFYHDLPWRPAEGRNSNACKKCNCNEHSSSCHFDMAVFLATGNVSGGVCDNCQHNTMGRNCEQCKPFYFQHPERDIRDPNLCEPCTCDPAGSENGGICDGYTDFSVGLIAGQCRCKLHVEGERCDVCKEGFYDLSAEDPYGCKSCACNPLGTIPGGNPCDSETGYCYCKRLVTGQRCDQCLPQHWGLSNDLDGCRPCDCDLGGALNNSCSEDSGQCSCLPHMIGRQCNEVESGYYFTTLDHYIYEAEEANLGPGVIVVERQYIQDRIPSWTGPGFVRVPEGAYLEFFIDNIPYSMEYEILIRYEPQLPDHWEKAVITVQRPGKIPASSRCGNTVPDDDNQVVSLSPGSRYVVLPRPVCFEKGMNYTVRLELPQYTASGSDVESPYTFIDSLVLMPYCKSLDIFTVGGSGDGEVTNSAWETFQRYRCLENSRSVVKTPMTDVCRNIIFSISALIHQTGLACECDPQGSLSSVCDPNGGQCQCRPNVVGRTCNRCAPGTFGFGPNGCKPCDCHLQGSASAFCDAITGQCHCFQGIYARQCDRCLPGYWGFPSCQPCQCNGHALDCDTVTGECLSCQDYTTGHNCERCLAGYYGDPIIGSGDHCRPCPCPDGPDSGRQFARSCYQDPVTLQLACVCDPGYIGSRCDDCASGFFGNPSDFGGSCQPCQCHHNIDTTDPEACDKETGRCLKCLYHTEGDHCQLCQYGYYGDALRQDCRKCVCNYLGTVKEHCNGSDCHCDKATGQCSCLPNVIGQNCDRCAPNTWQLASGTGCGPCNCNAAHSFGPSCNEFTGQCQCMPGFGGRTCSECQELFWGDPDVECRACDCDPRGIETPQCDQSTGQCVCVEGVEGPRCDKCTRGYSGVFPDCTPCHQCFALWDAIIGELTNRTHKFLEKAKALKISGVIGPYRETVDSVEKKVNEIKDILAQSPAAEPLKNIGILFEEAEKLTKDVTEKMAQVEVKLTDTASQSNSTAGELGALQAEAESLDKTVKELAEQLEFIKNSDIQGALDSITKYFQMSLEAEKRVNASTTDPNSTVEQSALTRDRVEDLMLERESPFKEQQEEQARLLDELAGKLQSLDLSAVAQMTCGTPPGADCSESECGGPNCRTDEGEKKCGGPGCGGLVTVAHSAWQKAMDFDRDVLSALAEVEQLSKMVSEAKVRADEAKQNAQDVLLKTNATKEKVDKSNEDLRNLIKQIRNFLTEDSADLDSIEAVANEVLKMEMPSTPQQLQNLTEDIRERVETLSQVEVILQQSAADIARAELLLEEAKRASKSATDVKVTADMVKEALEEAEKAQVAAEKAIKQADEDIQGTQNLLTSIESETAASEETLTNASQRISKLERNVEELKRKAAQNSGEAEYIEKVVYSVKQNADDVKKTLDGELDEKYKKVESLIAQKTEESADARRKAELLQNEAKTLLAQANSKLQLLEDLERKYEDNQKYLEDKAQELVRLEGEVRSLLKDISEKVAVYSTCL
UniProt P02468: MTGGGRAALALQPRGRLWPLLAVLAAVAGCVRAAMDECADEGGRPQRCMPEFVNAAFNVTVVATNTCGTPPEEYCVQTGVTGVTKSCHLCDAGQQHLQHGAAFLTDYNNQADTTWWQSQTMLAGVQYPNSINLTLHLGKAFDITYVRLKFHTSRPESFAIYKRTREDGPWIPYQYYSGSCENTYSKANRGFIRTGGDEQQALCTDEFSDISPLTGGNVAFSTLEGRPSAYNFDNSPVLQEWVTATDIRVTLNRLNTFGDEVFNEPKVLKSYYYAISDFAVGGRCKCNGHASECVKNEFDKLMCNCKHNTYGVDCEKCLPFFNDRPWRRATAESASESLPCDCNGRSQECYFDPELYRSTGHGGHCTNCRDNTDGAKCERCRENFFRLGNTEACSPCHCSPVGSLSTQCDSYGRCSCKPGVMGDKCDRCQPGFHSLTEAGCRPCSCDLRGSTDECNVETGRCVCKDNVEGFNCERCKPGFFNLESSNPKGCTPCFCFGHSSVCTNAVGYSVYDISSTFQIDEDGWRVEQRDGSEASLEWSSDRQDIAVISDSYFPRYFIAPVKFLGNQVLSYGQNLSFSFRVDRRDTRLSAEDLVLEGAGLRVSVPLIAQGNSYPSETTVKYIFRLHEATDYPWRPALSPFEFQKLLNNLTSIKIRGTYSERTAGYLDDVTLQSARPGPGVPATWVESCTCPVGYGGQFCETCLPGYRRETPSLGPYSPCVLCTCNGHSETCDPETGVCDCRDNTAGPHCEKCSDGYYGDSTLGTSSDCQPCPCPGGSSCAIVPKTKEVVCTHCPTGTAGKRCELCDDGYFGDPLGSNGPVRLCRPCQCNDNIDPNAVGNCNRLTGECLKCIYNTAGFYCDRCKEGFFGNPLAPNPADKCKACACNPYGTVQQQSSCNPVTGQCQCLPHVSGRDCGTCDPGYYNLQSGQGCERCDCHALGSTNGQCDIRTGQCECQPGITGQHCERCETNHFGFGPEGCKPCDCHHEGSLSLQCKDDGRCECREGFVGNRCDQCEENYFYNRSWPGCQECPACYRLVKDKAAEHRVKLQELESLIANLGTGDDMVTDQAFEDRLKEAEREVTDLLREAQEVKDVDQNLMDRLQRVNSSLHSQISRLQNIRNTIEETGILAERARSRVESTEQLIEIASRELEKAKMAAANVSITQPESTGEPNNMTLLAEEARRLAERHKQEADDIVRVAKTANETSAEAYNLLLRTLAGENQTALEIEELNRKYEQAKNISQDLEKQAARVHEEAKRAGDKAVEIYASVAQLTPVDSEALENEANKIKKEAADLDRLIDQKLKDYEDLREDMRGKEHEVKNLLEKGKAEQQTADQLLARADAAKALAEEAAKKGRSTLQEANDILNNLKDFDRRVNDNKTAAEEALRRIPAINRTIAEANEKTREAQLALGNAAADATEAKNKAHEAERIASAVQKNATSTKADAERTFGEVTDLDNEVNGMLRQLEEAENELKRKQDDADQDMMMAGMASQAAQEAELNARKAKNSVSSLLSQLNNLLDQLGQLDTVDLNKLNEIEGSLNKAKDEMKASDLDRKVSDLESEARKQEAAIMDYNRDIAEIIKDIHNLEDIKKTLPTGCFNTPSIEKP

Target: laminin from Engelbreth-Holm-Swarm murine sarcoma (Sigma) (murine) (UniProt P19137+P02469+P02468)
Test: solid-phase binding assay, laminin coated on 96-well plate, anti-GST HRP detection, A450

B1: recombinant GST-galectin-14 fusion protein (protein, not shown: a dimerising Fc or GST)
chain: MQSESGHEGDEELAFRDTQPPYINLPIPFTGRIEGGLQDGHKVTVMGRVLSTDENRFQVDFQMGISDTNNVAFHFNPRFEGSGYVVCNTMQLGNWGPEEKKMQMPFQKGSLFEICFKVDSSSFKVTVNGSIFLDYAHRLPFEQVNAISIGGCVHVSYISFQI
  binding: binds
